# No constants are given. Whether binding was seen depends on the method and setting. Binding seen in cells or lysates may run through a third protein. Some binding calls cover weakened binding; strength is not graded here. For part of these data: Tags and fused reporters may be left off the sequences shown.
# T1: Ctf4 (S. cerevisiae (endogenous in budding yeast cells)), Q01454
# T1 chain: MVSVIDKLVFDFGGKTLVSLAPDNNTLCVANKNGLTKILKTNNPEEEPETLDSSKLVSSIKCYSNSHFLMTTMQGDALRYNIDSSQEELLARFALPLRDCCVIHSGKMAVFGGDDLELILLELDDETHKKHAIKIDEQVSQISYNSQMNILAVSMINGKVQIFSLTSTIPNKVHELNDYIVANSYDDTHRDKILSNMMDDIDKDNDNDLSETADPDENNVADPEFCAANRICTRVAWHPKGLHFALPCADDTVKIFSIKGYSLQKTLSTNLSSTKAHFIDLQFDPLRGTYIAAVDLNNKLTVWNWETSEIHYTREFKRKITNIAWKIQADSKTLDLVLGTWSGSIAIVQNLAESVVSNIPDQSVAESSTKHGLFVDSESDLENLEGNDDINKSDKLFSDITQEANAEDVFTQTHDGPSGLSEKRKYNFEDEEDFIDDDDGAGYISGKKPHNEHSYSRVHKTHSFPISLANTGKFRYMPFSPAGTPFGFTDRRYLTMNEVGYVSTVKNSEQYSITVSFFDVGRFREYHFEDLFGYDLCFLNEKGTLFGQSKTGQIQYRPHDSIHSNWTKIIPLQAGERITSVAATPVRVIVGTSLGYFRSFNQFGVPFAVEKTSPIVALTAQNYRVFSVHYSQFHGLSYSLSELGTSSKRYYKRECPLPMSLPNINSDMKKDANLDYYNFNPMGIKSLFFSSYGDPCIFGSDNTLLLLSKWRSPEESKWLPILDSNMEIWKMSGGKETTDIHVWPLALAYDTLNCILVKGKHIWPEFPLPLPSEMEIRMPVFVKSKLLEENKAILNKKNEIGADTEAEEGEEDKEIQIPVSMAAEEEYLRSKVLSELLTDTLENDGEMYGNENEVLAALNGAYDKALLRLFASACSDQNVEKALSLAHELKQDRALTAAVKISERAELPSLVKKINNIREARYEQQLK
# T2: Chl1-HA (S. cerevisiae), P22516
# T2 chain: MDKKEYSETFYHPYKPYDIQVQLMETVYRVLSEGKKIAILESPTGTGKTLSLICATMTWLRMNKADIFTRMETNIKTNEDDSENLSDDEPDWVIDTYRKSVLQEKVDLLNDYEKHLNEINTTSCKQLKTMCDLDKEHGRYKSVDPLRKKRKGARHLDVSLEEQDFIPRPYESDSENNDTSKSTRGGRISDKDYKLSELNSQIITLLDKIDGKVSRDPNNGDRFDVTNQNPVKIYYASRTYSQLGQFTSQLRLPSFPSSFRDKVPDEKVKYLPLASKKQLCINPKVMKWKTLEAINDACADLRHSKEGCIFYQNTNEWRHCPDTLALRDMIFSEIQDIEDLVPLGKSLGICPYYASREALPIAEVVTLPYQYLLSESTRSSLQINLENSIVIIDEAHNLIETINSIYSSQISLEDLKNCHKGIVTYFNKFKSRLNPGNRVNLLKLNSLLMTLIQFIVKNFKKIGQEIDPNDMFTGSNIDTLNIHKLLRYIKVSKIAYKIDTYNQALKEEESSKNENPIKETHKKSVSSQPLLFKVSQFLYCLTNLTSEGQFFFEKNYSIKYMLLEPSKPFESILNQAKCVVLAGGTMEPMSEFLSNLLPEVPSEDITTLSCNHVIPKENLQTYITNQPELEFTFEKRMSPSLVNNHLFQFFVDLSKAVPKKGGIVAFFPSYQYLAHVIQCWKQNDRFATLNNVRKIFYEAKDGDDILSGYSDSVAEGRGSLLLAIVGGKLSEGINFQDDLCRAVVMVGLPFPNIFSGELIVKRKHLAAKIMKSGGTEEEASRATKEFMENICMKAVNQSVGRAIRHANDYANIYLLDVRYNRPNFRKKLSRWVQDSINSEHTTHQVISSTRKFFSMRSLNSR
# T3: Chl1^K48R (S. cerevisiae) (UniProt P22516)
# T3 sequence: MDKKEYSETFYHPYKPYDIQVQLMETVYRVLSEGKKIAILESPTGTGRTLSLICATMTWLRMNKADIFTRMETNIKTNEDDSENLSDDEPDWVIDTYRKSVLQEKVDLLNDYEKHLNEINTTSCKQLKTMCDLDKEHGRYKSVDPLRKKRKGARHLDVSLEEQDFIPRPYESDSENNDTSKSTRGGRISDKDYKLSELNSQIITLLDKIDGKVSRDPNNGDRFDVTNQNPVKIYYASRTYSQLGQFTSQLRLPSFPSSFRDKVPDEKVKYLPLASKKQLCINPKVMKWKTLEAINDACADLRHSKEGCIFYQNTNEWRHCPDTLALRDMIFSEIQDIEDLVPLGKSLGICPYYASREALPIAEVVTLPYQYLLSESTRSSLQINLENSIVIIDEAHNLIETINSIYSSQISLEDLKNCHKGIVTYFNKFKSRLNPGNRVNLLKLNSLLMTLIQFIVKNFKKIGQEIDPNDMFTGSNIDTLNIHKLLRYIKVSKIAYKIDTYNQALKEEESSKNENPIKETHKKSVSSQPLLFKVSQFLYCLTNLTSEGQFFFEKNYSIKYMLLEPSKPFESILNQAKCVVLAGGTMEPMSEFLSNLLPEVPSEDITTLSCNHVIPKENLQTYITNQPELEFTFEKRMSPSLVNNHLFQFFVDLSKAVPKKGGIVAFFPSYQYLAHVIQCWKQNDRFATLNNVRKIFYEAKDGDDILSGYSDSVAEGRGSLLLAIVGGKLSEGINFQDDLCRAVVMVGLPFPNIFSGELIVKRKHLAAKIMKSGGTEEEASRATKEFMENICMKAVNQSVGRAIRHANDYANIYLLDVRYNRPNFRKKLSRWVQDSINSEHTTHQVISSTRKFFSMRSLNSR
# B1: Pk epitope-tagged Chl1, P22516 1-861 (enzyme)
# chain: MDKKEYSETFYHPYKPYDIQVQLMETVYRVLSEGKKIAILESPTGTGKTLSLICATMTWLRMNKADIFTRMETNIKTNEDDSENLSDDEPDWVIDTYRKSVLQEKVDLLNDYEKHLNEINTTSCKQLKTMCDLDKEHGRYKSVDPLRKKRKGARHLDVSLEEQDFIPRPYESDSENNDTSKSTRGGRISDKDYKLSELNSQIITLLDKIDGKVSRDPNNGDRFDVTNQNPVKIYYASRTYSQLGQFTSQLRLPSFPSSFRDKVPDEKVKYLPLASKKQLCINPKVMKWKTLEAINDACADLRHSKEGCIFYQNTNEWRHCPDTLALRDMIFSEIQDIEDLVPLGKSLGICPYYASREALPIAEVVTLPYQYLLSESTRSSLQINLENSIVIIDEAHNLIETINSIYSSQISLEDLKNCHKGIVTYFNKFKSRLNPGNRVNLLKLNSLLMTLIQFIVKNFKKIGQEIDPNDMFTGSNIDTLNIHKLLRYIKVSKIAYKIDTYNQALKEEESSKNENPIKETHKKSVSSQPLLFKVSQFLYCLTNLTSEGQFFFEKNYSIKYMLLEPSKPFESILNQAKCVVLAGGTMEPMSEFLSNLLPEVPSEDITTLSCNHVIPKENLQTYITNQPELEFTFEKRMSPSLVNNHLFQFFVDLSKAVPKKGGIVAFFPSYQYLAHVIQCWKQNDRFATLNNVRKIFYEAKDGDDILSGYSDSVAEGRGSLLLAIVGGKLSEGINFQDDLCRAVVMVGLPFPNIFSGELIVKRKHLAAKIMKSGGTEEEASRATKEFMENICMKAVNQSVGRAIRHANDYANIYLLDVRYNRPNFRKKLSRWVQDSINSEHTTHQVISSTRKFFSMRSLNSR
# B2: Ctf4, Q01454 1-927 (protein)
# chain: MVSVIDKLVFDFGGKTLVSLAPDNNTLCVANKNGLTKILKTNNPEEEPETLDSSKLVSSIKCYSNSHFLMTTMQGDALRYNIDSSQEELLARFALPLRDCCVIHSGKMAVFGGDDLELILLELDDETHKKHAIKIDEQVSQISYNSQMNILAVSMINGKVQIFSLTSTIPNKVHELNDYIVANSYDDTHRDKILSNMMDDIDKDNDNDLSETADPDENNVADPEFCAANRICTRVAWHPKGLHFALPCADDTVKIFSIKGYSLQKTLSTNLSSTKAHFIDLQFDPLRGTYIAAVDLNNKLTVWNWETSEIHYTREFKRKITNIAWKIQADSKTLDLVLGTWSGSIAIVQNLAESVVSNIPDQSVAESSTKHGLFVDSESDLENLEGNDDINKSDKLFSDITQEANAEDVFTQTHDGPSGLSEKRKYNFEDEEDFIDDDDGAGYISGKKPHNEHSYSRVHKTHSFPISLANTGKFRYMPFSPAGTPFGFTDRRYLTMNEVGYVSTVKNSEQYSITVSFFDVGRFREYHFEDLFGYDLCFLNEKGTLFGQSKTGQIQYRPHDSIHSNWTKIIPLQAGERITSVAATPVRVIVGTSLGYFRSFNQFGVPFAVEKTSPIVALTAQNYRVFSVHYSQFHGLSYSLSELGTSSKRYYKRECPLPMSLPNINSDMKKDANLDYYNFNPMGIKSLFFSSYGDPCIFGSDNTLLLLSKWRSPEESKWLPILDSNMEIWKMSGGKETTDIHVWPLALAYDTLNCILVKGKHIWPEFPLPLPSEMEIRMPVFVKSKLLEENKAILNKKNEIGADTEAEEGEEDKEIQIPVSMAAEEEYLRSKVLSELLTDTLENDGEMYGNENEVLAALNGAYDKALLRLFASACSDQNVEKALSLAHELKQDRALTAAVKISERAELPSLVKKINNIREARYEQQLK
# B3: Ctf4 (protein, UniProt Q01454 1-927)
# chain: MVSVIDKLVFDFGGKTLVSLAPDNNTLCVANKNGLTKILKTNNPEEEPETLDSSKLVSSIKCYSNSHFLMTTMQGDALRYNIDSSQEELLARFALPLRDCCVIHSGKMAVFGGDDLELILLELDDETHKKHAIKIDEQVSQISYNSQMNILAVSMINGKVQIFSLTSTIPNKVHELNDYIVANSYDDTHRDKILSNMMDDIDKDNDNDLSETADPDENNVADPEFCAANRICTRVAWHPKGLHFALPCADDTVKIFSIKGYSLQKTLSTNLSSTKAHFIDLQFDPLRGTYIAAVDLNNKLTVWNWETSEIHYTREFKRKITNIAWKIQADSKTLDLVLGTWSGSIAIVQNLAESVVSNIPDQSVAESSTKHGLFVDSESDLENLEGNDDINKSDKLFSDITQEANAEDVFTQTHDGPSGLSEKRKYNFEDEEDFIDDDDGAGYISGKKPHNEHSYSRVHKTHSFPISLANTGKFRYMPFSPAGTPFGFTDRRYLTMNEVGYVSTVKNSEQYSITVSFFDVGRFREYHFEDLFGYDLCFLNEKGTLFGQSKTGQIQYRPHDSIHSNWTKIIPLQAGERITSVAATPVRVIVGTSLGYFRSFNQFGVPFAVEKTSPIVALTAQNYRVFSVHYSQFHGLSYSLSELGTSSKRYYKRECPLPMSLPNINSDMKKDANLDYYNFNPMGIKSLFFSSYGDPCIFGSDNTLLLLSKWRSPEESKWLPILDSNMEIWKMSGGKETTDIHVWPLALAYDTLNCILVKGKHIWPEFPLPLPSEMEIRMPVFVKSKLLEENKAILNKKNEIGADTEAEEGEEDKEIQIPVSMAAEEEYLRSKVLSELLTDTLENDGEMYGNENEVLAALNGAYDKALLRLFASACSDQNVEKALSLAHELKQDRALTAAVKISERAELPSLVKKINNIREARYEQQLK
# Columns and labels:
# [1] = molecular target: T1, Ctf4 (S. cerevisiae (endogenous in …)); assay: co-IP; extracts of a culture passing synchronously through the cell cycle after α factor block and release; time points in S phase; immunoblotting; conditions: remark: other sources report otherwise
# [2] = molecular target: T2, Chl1-HA (S. cerevisiae), P22516; assay: co-IP; extracts of cells synchronized and arrested in early S phase by HU; Chl1-HA immunoprecipitated, Ctf4 detected by immunoblotting; conditions: remark: other sources report otherwise
# [3] = molecular target: T3, Chl1^K48R (S. cerevisiae); assay: as above
binder,measurement,setting,value
B1,binding,[1],binds
B2,binding,[2],binds
B3,binding,[3],binds
